Laboratory results taken from patent publication US20070020269A1 (published 2007).
Results are given in words; binding and its absence hold for the method and conditions named. For part of these data: In cells and extracts the contact can be indirect. Some entries that bind do so weakly or less than the wild type. Sequences can lack the tags named with a protein.

By UniProt entry, the sequences of proteins in these tests, tags left out. Where a name states a change or a piece, a line headed by the entry shows the natural chain unless it says otherwise. Residues count along the entry.
UniProt P30281: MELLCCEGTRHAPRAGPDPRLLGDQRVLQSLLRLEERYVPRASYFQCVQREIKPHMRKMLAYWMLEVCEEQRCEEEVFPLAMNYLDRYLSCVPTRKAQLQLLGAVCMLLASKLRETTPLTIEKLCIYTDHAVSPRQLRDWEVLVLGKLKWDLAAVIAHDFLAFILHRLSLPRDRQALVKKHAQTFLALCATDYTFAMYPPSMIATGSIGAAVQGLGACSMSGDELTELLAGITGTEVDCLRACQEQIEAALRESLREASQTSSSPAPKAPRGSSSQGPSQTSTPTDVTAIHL
UniProt P38936: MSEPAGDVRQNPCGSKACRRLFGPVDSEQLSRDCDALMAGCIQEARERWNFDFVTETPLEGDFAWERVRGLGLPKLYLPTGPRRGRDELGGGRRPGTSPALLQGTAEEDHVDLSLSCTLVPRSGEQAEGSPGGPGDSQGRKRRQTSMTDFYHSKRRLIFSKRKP
p21-N: residues 1-89 of P38936
endogenous p21: residues 2-164 of P38936
p21-D1: residues 20-164 of P38936
p21-D2: residues 40-164 of P38936

Legend:
[1] = target: cyclin D3 (yeast two-hybrid clone) (UniProt P30281); assay: Gal4 yeast two-hybrid screen of Hela, lymph and fetal brain libraries
[2] = target: p21 (positive clone of the yeast two-hybrid screen) (UniProt P38936); assay: as above
[3] = target: cyclin D3 (yeast two-hybrid clone) (UniProt P30281); assay: yeast two-hybrid, panel of cyclins
[4] = target: HA-cyclin D3 (UniProt P30281); assay: co-immunoprecipitation (anti-flag IP, anti-HA blot), 293T cells co-transfected with RX50 and cyclin D3
[5] = target: HA-cyclin D3 (UniProt P30281); assay: co-immunoprecipitation, 293T cells transfected with flag-RX50, myc-p21 and HA-cyclin D3
[6] = target: endogenous p21 (UniProt P38936); assay: co-immunoprecipitation (anti-p21 IP, anti-flag blot), 293T cells transfected with RX50
[7] = target: HA-cyclin D3 (UniProt P30281); assay: co-immunoprecipitation, 293T cells transfected with flag-RX50 and HA-cyclin D3
[8] = target: myc-p21 (UniProt P38936); assay: co-immunoprecipitation, 293T cells co-transfected with flag-RX50 and myc-p21
[9] = target: p21-D1 (UniProt P38936); assay: co-immunoprecipitation (anti-myc IP, anti-flag blot), co-transfected 293T cells
[10] = target: p21-N (UniProt P38936); assay: as above
[11] = target: p21-D2 (UniProt P38936); assay: as above
[12] = target: myc-p21 (UniProt P38936); assay: as above
[13] = target: HA-cyclin D3 (UniProt P30281); assay: co-immunoprecipitation (anti-flag IP, anti-HA blot), 293T cells co-transfected with RX50, cyclin D3 and p21
[14] = target: endogenous p21 (UniProt P38936); assay: co-immunoprecipitation
[15] = target: HA-cyclin D3 (UniProt P30281); assay: co-immunoprecipitation

Row | binding [1] | binding [2] | binding [3] | binding [4] | binding [5] | binding [6] | binding [7] | binding [8] | binding [9] | binding [10] | binding [11] | binding [12] | binding [13] | binding [14] | binding [15] | Binder
1 | binds | binds | binds |  |  |  |  |  |  |  |  |  |  |  |  | RX50 bait (RX50 gene in modified fusion plasmid pGBKT7, Gal4 yeast two-hybrid system) (enzyme, not shown: large carriers) MHGYFGCNAAAEPGYSAFVGTPQICVTKFSTRNCQGMDSVIKPLDTIPEDKKVRVQRTQSTFDPFEKPANQVKRVHSENNACINFKTSSTGKESPKVRRHSSPSSPTSPKFGKADSYEKLEKLGEGSYAYVYKGKSKVNGKLVALKVIRLQEEEGTPFTAIREASIIKGLKHANIVLLHDIIHTKETLTLVFEYYHTDLCQYMDKHPGGLHPDNVKLFLFQLLRGLSYIHQRYILHRDLKPGNLLISDTGELKLADFGLAKAKSVPSHTTSNEVVYLWYRPPDVLLGSTEYSTCLDMWGVGCIFVEMIQGVAAFPGMKDIQDQLERIFLVLGTPNEDTWPGVHSLPHFKPERFTLYSSKNLRQAWNKLSYVNHAEDLASKLLQCSPKNRLSAQAALSHEYFSDLPPRLWELTDMSSIFTVPNVRLQPEAGESMRAFGKNNSYGKSLSNSKH
2 |  |  |  | binds | binds | binds | binds | binds | binds | binds | binds | binds | binds | binds | binds | Flag-RX50 (enzyme, Expressed in transfected 293T cells; also called RX50 protein; not shown: N-terminal flag-tag from modified pcDNA3.1) MHGYFGCNAAAEPGYSAFVGTPQICVTKFSTRNCQGMDSVIKPLDTIPEDKKVRVQRTQSTFDPFEKPANQVKRVHSENNACINFKTSSTGKESPKVRRHSSPSSPTSPKFGKADSYEKLEKLGEGSYAYVYKGKSKVNGKLVALKVIRLQEEEGTPFTAIREASIIKGLKHANIVLLHDIIHTKETLTLVFEYYHTDLCQYMDKHPGGLHPDNVKLFLFQLLRGLSYIHQRYILHRDLKPGNLLISDTGELKLADFGLAKAKSVPSHTTSNEVVYLWYRPPDVLLGSTEYSTCLDMWGVGCIFVEMIQGVAAFPGMKDIQDQLERIFLVLGTPNEDTWPGVHSLPHFKPERFTLYSSKNLRQAWNKLSYVNHAEDLASKLLQCSPKNRLSAQAALSHEYFSDLPPRLWELTDMSSIFTVPNVRLQPEAGESMRAFGKNNSYGKSLSNSKH
